{"sequences": {"note": "Chains of the proteins cited; added tags and fusions are not shown. Lines headed by an entry give the natural chain unless they say otherwise; changes in a name come on top. Residues count along the entry.", "UniProt P01241, residues 27-217": "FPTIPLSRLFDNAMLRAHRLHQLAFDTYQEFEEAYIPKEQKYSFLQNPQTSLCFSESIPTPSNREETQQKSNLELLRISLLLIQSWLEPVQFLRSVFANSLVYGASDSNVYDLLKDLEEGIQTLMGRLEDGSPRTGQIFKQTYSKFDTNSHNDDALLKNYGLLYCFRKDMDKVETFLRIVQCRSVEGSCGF", "UniProt P23284": "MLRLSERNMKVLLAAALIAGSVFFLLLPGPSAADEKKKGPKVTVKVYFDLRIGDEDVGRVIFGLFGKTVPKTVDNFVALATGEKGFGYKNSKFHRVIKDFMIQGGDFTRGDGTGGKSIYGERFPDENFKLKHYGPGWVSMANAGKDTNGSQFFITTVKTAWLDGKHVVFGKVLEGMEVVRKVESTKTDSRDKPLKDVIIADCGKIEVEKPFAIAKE"}, "source": "patent US7105306", "target": "growth hormone (GH) (human) (UniProt P01241)", "assay": "direct interaction of purified proteins; method for GH not detailed", "note": "These are yes or no findings as the source states them, for the method shown. Some results given as binding are weak or reduced against the parent protein; the word gives no strength."}
{"substance": "His-tagged cyclophilin B (CypB), recombinant, purified from Drosophila S2 cells (from UniProt P23284 34-216) (enzyme)", "values": [{"measurement": "binding", "result": "binds"}]}
